# Source: patent US4532202A, “Coupler for photography” (Konishiroku Photo Industry Co., Ltd., priority 1982, dated 1985)
# Assay: Generation of stain (increase in blue density at unexposed portion)
# Details: degree of increase in blue density at the unexposed portion of the sample subjected to light resistance test
row,Compound,Stain
1,CCC(Oc1ccc(C(C)(C)CC)cc1C(C)(C)CC)C(=O)Nc1cc(Cl)c(C)c(Cl)c1O (stereo not shown) [Control coupler (E)],220 percentage
2,CCCCCCCCCCCCC(Oc1ccc(NS(=O)(=O)CCCC)cc1)C(=O)Nc1cc(O)c(NC(=O)c2ccccc2)cc1Cl (stereo not shown) [Control coupler (F)],380 percentage
3,CCCCCCCCCCCCC(Oc1ccc(O)c(C(C)(C)C)c1)C(=O)Nc1ccc(NC(=O)c2ccccc2F)c(O)c1 (stereo not shown) [Control coupler (G)],390 percentage
4,CCCCC(Oc1ccc(C(C)(C)CC)cc1C(C)(C)CC)C(=O)Nc1ccc(NC(=O)C(F)(F)C(F)(F)C(F)(F)F)c(O)c1 (stereo not shown) [Control coupler (H)],280 percentage
5,CCCCC(Oc1ccc(C(C)(C)CC)cc1C(C)(C)CC)C(=O)Nc1cc(O)c(NC(=O)c2c(F)c(F)c(F)c(F)c2F)cc1F (stereo not shown) [Control coupler (I)],520 percentage
6,"CCC(C)(C)c1ccc(OC(C(=O)Nc2cc(O)c(NC(=O)c3c(F)c(F)c(F)c(F)c3F)cc2Cl)C(C)C)c(C(C)(C)CC)c1 (stereo not drawn) [Exemplary compound (I-2), 2-(2,3,4,5,6-pentafluoro)benazmido-4-chloro-5-[α-(2,4-di-t-amylphenoxy)-β-methylbutaneamido]phenol]",220 percentage
7,CC(C)C(Oc1ccc(C(C)(C)C)cc1C(C)(C)C)C(=O)Nc1cc(O)c(NC(=O)c2c(F)c(F)c(F)c(F)c2F)cc1Cl (stereo not shown) [Exemplary compound (I-3)],240 percentage
8,CCC(C)C(Oc1ccc(C(C)(C)CC)cc1C(C)(C)CC)C(=O)Nc1cc(O)c(NC(=O)c2c(F)c(F)c(F)c(F)c2F)cc1Cl (stereo not shown) [Exemplary compound (I-4)],220 percentage
9,"CCCCCCCCCCCCCCCc1cccc(OC(C(=O)Nc2cc(O)c(NC(=O)c3c(F)c(F)c(F)c(F)c3F)cc2Cl)C(C)C)c1 (stereo not drawn) [Exemplary compound (I-10), 2-(2,3,4,5,6-pentafluoro)benzamido-4-chloro-5-[α-(m-pentadecylphenoxy)-β-methylbutaneamido]phenol]",230 percentage
10,CCCCS(=O)(=O)Nc1ccc(OC(C(=O)Nc2cc(O)c(NC(=O)c3c(F)c(F)c(F)c(F)c3F)cc2Cl)C(C)C)cc1 (stereo not shown) [Exemplary compound (I-11)],240 percentage
